These results are taken from patent US20130252950A1, “TARGETING MTOR SUBSTRATES IN TREATING PROLIFERATIVE DISEASES” (President and Fellows of Harvard College, priority 2010, published 2013).

Protein sequences, listed by entry. Tags and fused reporters are not part of them.
UniProt Q8N122: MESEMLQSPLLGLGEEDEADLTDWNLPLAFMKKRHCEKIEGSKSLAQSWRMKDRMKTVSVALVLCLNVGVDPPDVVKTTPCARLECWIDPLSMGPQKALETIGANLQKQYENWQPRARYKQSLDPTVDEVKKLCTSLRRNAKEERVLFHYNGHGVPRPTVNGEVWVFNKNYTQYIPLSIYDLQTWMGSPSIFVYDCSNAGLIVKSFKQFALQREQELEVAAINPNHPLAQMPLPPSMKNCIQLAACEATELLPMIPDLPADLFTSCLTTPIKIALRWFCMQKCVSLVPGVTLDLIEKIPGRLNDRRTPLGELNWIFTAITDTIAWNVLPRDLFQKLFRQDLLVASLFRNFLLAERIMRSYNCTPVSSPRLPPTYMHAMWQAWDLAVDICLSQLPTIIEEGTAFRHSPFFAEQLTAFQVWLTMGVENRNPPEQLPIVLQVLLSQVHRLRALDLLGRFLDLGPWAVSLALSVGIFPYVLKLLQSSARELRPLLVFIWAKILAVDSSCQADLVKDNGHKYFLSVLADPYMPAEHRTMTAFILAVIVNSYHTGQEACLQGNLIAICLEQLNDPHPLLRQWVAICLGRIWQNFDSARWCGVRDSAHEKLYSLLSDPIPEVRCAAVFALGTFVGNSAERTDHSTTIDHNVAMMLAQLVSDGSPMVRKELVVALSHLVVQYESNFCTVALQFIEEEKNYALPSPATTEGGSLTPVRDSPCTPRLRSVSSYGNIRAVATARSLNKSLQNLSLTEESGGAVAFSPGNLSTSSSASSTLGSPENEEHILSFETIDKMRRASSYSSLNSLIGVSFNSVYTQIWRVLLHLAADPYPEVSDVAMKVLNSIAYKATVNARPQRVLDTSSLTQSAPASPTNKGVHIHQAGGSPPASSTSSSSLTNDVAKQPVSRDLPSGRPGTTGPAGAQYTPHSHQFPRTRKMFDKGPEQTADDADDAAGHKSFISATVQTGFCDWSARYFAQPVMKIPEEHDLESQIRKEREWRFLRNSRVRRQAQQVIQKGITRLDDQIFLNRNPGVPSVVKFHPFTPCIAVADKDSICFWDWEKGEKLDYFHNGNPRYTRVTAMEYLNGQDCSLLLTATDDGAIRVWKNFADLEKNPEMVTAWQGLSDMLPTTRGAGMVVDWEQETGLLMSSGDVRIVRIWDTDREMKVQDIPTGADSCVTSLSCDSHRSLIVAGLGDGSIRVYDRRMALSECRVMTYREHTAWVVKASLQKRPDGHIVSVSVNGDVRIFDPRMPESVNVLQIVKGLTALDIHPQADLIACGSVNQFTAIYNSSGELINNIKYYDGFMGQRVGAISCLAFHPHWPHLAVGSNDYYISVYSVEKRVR

These are yes or no findings as the source states them, for the method shown. In cells and extracts the contact can be indirect. Some results given as binding are weak or reduced against the parent protein; the word gives no strength. Tags and fused reporters may be left off the sequences shown.

The experiment deals with Myc-tagged raptor (pRK5-Myc-raptor) (UniProt Q8N122). As to the kind of experiment: co-immunoprecipitation with anti-HA beads from co-transfected HEK293T cells, anti-Myc blot.

B1: HA-tagged Grb10 (human growth factor receptor-bound protein 10, wild type) (other, UniProt Q13322-3 1-536, looked up)
chain: MNASLESLYSACSMQSDTVPLLQNGQHARSQPRASGPPRSIQPQVSPRQRVQRSQPVHILAVRRLQEEDQQFRTSSLPAIPNPFPELCGPGSPPVLTPGSLPPSQAAAKQDVKVFSEDGTSKVVEILADMTARDLCQLLVYKSHCVDDNSWTLVEHHPHLGLERCLEDHELVVQVESTMASESKFLFRKNYAKYEFFKNPMNFFPEQMVTWCQQSNGSQTQLLQNFLNSSSCPEIQGFLHVKELGKKSWKKLYVCLRRSGLYCSTKGTSKEPRHLQLLADLEDSNIFSLIAGRKQYNAPTDHGLCIKPNKVRNETKELRLLCAEDEQTRTCWMTAFRLLKYGMLLYQNYRIPQQRKALLSPFSTPVRSVSENSLVAMDFSGQTGRVIENPAEAQSAALEEGHAWRKRSTRMNILGSQSPLHPSTLSTVIHRTQHWFHGRISREESHRIIKQQGLVDGLFLLRDSQSNPKAFVLTLCHHQKIKNFQILPCEDDGQTFFSLDDGNTKFSDLIQLVDFYQLNKGVLPCKLKHHCIRVAL
notes: Expressed by transfection in HEK293T cells; The phospho-specific antibody recognises it in the form phosphorylated at S501/S503 (mouse isoform 1 numbering) in cells; also called WT-Grb10; Grb10 WT; not shown: HA tag from vector pKH3
Consider B1, for which the binding result is on record as “binds”.
